Results published in PMC8575914.
These are yes or no findings as the source states them, for the method shown. In cells and extracts the contact can be indirect. Some entries that bind do so weakly or less than the wild type. Sequences can lack the tags named with a protein.

By UniProt entry, the sequences of proteins in these tests, tags left out.
UniProt P23804: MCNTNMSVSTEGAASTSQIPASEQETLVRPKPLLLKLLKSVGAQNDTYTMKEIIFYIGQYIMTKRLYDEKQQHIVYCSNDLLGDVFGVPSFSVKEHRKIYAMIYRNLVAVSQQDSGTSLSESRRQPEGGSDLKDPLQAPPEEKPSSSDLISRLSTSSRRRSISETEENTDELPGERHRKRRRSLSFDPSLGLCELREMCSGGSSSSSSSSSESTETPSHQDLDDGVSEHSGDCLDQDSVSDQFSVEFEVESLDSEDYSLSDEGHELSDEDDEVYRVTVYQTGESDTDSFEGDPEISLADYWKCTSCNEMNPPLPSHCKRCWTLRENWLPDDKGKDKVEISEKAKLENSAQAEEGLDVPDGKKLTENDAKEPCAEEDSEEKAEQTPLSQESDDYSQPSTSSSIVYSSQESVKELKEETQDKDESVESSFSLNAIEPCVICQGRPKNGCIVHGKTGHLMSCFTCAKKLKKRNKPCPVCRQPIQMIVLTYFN

How the values were obtained:
FLAG-MORC2a (mouse) = biological target: T1, FLAG-MORC2a (mouse) (UniProt Q69ZX6); assay: co-IP; anti-FLAG affinity gel, 6 h, on precleared lysates of cells ectopically expressing the tagged proteins; rinsed four times in lysis buffer (50 mM HEPES pH 8.0, 150 mM NaCl, 0.5% Triton-X 100); western blot
T1 sequence: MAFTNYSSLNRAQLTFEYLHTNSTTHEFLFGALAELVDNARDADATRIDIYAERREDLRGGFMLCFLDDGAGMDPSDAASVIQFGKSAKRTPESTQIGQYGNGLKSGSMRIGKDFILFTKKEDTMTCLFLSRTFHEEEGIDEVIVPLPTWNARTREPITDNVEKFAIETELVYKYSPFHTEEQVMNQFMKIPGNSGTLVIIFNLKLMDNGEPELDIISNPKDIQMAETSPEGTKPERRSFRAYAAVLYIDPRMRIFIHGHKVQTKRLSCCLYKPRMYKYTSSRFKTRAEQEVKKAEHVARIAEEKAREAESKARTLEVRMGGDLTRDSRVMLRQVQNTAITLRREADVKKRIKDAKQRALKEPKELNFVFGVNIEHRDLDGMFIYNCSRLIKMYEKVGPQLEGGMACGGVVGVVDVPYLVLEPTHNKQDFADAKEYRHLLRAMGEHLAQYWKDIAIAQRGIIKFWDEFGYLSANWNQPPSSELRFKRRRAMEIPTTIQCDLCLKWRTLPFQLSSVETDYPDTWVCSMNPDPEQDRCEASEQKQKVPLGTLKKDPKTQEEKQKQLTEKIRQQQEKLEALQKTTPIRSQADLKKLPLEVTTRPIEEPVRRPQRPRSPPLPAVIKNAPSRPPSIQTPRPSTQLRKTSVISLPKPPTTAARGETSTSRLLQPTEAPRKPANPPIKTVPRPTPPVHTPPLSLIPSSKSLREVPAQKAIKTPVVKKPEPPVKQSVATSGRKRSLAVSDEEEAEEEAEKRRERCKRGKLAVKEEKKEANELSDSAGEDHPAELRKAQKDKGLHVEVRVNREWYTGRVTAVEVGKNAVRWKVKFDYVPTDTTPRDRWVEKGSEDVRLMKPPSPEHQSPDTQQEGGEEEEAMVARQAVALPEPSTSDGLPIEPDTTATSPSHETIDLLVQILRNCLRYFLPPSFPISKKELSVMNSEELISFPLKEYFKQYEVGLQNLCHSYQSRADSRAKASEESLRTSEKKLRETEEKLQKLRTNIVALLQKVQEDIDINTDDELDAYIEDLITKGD

FLAG-MORC2b (mouse) = biological target: T2, FLAG-MORC2b (mouse) (UniProt Q8C5W4); assay: as above
T2 sequence: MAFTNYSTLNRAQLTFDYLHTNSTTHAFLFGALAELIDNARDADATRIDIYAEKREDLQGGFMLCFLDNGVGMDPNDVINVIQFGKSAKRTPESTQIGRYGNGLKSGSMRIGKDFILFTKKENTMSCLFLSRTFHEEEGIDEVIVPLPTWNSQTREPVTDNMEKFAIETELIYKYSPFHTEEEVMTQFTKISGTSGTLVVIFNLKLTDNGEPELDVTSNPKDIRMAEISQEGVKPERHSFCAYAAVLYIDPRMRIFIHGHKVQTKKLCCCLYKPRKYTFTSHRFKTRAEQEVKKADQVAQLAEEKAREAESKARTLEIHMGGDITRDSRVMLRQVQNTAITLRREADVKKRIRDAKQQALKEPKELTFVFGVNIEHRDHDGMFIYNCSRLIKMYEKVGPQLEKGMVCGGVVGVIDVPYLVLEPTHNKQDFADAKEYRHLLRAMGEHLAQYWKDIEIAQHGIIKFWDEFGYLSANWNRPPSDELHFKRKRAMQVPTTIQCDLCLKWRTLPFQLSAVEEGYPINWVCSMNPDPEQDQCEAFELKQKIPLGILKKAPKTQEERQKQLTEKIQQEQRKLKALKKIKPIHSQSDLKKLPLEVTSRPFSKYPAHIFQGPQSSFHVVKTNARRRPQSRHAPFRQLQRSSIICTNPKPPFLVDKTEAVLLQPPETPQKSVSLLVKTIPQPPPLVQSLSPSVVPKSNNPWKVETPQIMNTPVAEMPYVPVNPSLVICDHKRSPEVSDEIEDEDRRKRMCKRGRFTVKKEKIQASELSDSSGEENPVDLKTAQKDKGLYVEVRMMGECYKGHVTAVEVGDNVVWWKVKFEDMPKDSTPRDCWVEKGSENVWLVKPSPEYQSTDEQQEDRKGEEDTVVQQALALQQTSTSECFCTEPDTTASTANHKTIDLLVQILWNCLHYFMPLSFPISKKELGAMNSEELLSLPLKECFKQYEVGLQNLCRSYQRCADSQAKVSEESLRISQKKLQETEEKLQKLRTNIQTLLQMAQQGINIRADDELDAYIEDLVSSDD

binding (FLAG-MORC2a (mouse)): binds
binding (FLAG-MORC2b (mouse)): binds
Substance: MYC-MDM2 (from UniProt P23804 1-489)
